These results are taken from the supplement of paper PMC7125110.

± gives the standard error. Many of these values have a large error.

The chains are these.
B1: glmS ribozyme (parent)
chain: AUAAAAGCGCCAGAACUACAGAAAUGUAGUUGACGAGGAGGAGGUUUAUCGAAUUUUCGGCGGAUGCCUCCAAA

One series covers variants of B1. In words: kcat; higher = faster cleavage; RNA array. Particulars: with glucosamine-6-phosphate. In outline:
(§1)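 In situ transcription by E. coli RNA polymerase produced barcoded ribozyme variants on sequenced MiSeq chips, and a hybridised Cy3 probe tracked them at 37 °C. Glucosamine-6-phosphate was flowed in at 40 μM to 10 mM in HEPES/KCl/Mg(OAc)2 buffer. kcat and KM were taken from weighted Michaelis–Menten fits of kobs values from exponential decay fits.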
Regarding A53G U65C, the kcat came out at 0.000702 ± 0.00037 s⁻¹.
As for C11G C71G, the kcat was 2.8e-05 ± 2.3e-05 s⁻¹.
Turning to A14G U54A, the kcat was 0.0217 ± 0.014 s⁻¹.
On the same count and under the same terms, for A53C C70A the value was 5.94e-05 ± 1.5e-05 s⁻¹; for A53C C70U, 0.00487 ± 0.0012 s⁻¹; for A64U G66U, less than 1e-05 s⁻¹.
A53U U55C: the kcat amounted to 0.016 ± 0.0084 s⁻¹.
Turning to A15G C50G C70U, the kcat is 6.81e-05 ± 3.6e-05 s⁻¹.
On the same count and under the same terms, for C11A A64U the value was less than 1e-05 s⁻¹.
For the variant A14U C67A, the kcat stood at 0.00153 ± 0.00048 s⁻¹.
On the same count and under the same terms, for U45G U56C the value was 0.0017 ± 0.0014 s⁻¹.
In the case of U54G U56C, the kcat was 0.00516 ± 0.004 s⁻¹.
On to A39G G44C, for which the kcat worked out at 0.000507 ± 6.5e-05 s⁻¹.
Take U55G G59U: the kcat came to 0.000139 ± 0.0001 s⁻¹.
As for A6U C50G A52U C61G C68U, the kcat was found to be 3.87e-05 ± 1.1e-05 s⁻¹.
Take A6U G59A: the kcat was less than 1e-05 s⁻¹.
As to G32U U65G G66C, the kcat worked out at 1.45e-05 ± 8.6e-06 s⁻¹.
Same read-out and setting: for G59U U69G the value was 2.94e-05 ± 8.4e-06 s⁻¹.
As to C10U G63A, the kcat is less than 1e-05 s⁻¹.
For U46G C50G C71A, the kcat is 2.29e-05 ± 1.7e-05 s⁻¹.
On to A15C C16G, for which the kcat came to 0.00395 ± 0.0024 s⁻¹.
Take A15C A48C: the kcat is 0.000268 ± 0.00017 s⁻¹.
On the same count and under the same terms, for C10A C70G the value was 3.57e-05 ± 2.4e-05 s⁻¹; for U57G A64U C67A C68U, 9.53e-05 ± 7.2e-05 s⁻¹; for U31G C71A, 0.000697 ± 0.00041 s⁻¹.
Still for that read-out and setting: for A12C C16U G41U the value was 0.000775 ± 0.00044 s⁻¹.

Variants of B1 are the subject of the next series. In words: KM; higher = weaker cofactor use; RNA array. Particulars: with glucosamine-6-phosphate. Summed up:
as §1
Consider A53G U65C, for which the KM is 2440 ± 2400 µM.
For A14G U54A, the KM came to 589 ± 470 µM.
For A53C C70U, the KM was 2220 ± 670 µM.
In the case of U46G U65C, the KM worked out at 1730 ± 260 µM.
Same read-out and setting: for A53U U55C the value was 1970 ± 1400 µM; for A12G A14U C58A G66C, 17900 ± 8100 µM.
Same read-out and setting: for U31C A53G C70U the value was 620 ± 200 µM.
On the same count and under the same terms, for U47A C71U the value was 285 ± 160 µM; for A53C C58A, 3200 ± 2400 µM.
Consider G37C A42G, for which the KM is 1800 ± 940 µM.
Regarding C11U A39C, the KM is 4650 ± 1100 µM.
In the case of A12C C16U, the Michaelis constant (KM) was found to be 1120 ± 630 µM.
As for A12U A39U, the KM was determined as 386 ± 240 µM.
On to G35A G38A, for which the KM worked out at 26.3 ± 18 µM.
Take A14U C67A: the KM was 1240 ± 540 µM.
For A14G A64G U65A, the KM stood at 725 ± 390 µM.
With G9A U54C, the KM turned out to be 63700 ± 17000 µM.
As to A12C G66U, the KM came out at 1990 ± 990 µM.
On to U54G U56C, for which the KM was 4870 ± 4700 µM.
On the same count and under the same terms, for A14U C68U the value was 3310 ± 1700 µM; for G32A G60C, 183 ± 55 µM.
On to C16G G29U U54A, for which the KM is 5160 ± 3100 µM.
In the case of A39G G44C, the KM was 2450 ± 660 µM.
A6G U31C: the KM turned out to be 1400 ± 990 µM.
For the variant A6U U46A, the KM was 51700 ± 8700 µM.
Still for that read-out and setting: for G26A the value was 332 ± 180 µM.
On to A39U G66C, for which the KM is 6420 ± 2800 µM.
With A6U G59A, the KM came to 125 ± 100 µM.
With A14G G66C, the KM was 1410 ± 110 µM.
As to A15C C16G, the KM came out at 5120 ± 4200 µM.
In the case of U30A C58U, the KM amounted to 2130 ± 1600 µM.
Consider G29C U47A, for which the KM stood at 3370 ± 2000 µM.
As for A12U C16A A33U A36C G38A G62A U69A C71U, the KM was determined as 26.2 ± 16 µM.
As to G43C C68A, the KM amounted to 1040 ± 730 µM.
In the case of U31C G41C, the KM turned out to be 7090 ± 5200 µM.
Still for that read-out and setting: for A15C A48C the value was 43800 ± 33000 µM; for A42U C71U, 1320 ± 400 µM; for U47G U65C, 1420 ± 900 µM.
Turning to G13A C71U, the KM worked out at 4730 ± 920 µM.
For C10A C67G, the KM was 81.7 ± 67 µM.
Consider G37C G38U, for which the KM is 103 ± 65 µM.
Turning to G32A U54C, the KM was determined as 5430 ± 2900 µM.
With C10U C11U, the KM was 15200 ± 12000 µM.
For U31G C71A, the KM worked out at 231 ± 220 µM.
Turning to A12C C16U G41U, the KM amounted to 2070 ± 2000 µM.
Same read-out and setting: for A42G C68G the value was 429 ± 410 µM; for G29C A64G, 1550 ± 1100 µM.

The variants in the next series derive from B1. Briefly: self-cleavage kobs at 160 uM GlcN6P; higher = faster cleavage; RNA array. Particulars: with glucosamine-6-phosphate. Summed up:
as §1
Regarding A53G U65C, the “self-cleavage kobs at 160 uM GlcN6P” value came out at 2.87e-05 ± 1.9e-05 s⁻¹.
Regarding C11G C71G, the “self-cleavage kobs at 160 uM GlcN6P” value came to 2.41e-05 ± 1.5e-05 s⁻¹.
Regarding C11U A39C, the “self-cleavage kobs at 160 uM GlcN6P” value came to 2.23e-05 ± 1.6e-05 s⁻¹.
A6U C50G A52U C61G C68U: the “self-cleavage kobs at 160 uM GlcN6P” value worked out at 2.71e-05 ± 2.4e-05 s⁻¹.
As to G59U U69G, the “self-cleavage kobs at 160 uM GlcN6P” value is 2.61e-05 ± 2.1e-05 s⁻¹.
With A42U C71U, the “self-cleavage kobs at 160 uM GlcN6P” value was found to be 1.73e-05 ± 1.6e-05 s⁻¹.
For the variant C10A C67G, the “self-cleavage kobs at 160 uM GlcN6P” value amounted to 0.000247 ± 0.00015 s⁻¹.
Consider A42G C68G, for which the “self-cleavage kobs at 160 uM GlcN6P” value was 3.81e-05 ± 2e-05 s⁻¹.

In the next series the parent is B1. Briefly: self-cleavage kobs at 2500 uM GlcN6P; higher = faster cleavage; RNA array. Particulars: with glucosamine-6-phosphate. In outline:
as §1
For the variant C11G C71G, the “self-cleavage kobs at 2500 uM GlcN6P” value was determined as 2.68e-05 ± 2.3e-05 s⁻¹.
Turning to U46G U65C, the “self-cleavage kobs at 2500 uM GlcN6P” value is 2.54e-05 ± 1.5e-05 s⁻¹.
On to A12G A14U C58A G66C, for which the “self-cleavage kobs at 2500 uM GlcN6P” value was determined as 2.91e-05 ± 2.4e-05 s⁻¹.
Turning to U55G G59U, the “self-cleavage kobs at 2500 uM GlcN6P” value came to 1.35e-05 ± 1.2e-05 s⁻¹.
As to G59U U69G, the “self-cleavage kobs at 2500 uM GlcN6P” value came to 3.38e-05 ± 2.2e-05 s⁻¹.
Take U46G C50G C71A: the “self-cleavage kobs at 2500 uM GlcN6P” value worked out at 1.84e-05 ± 1.7e-05 s⁻¹.
The same measure, in the same setting: for A15C C16G the value was 0.000577 ± 0.00032 s⁻¹.
On the same count and under the same terms, for U31C G41C the value was 1.22e-05 ± 1e-05 s⁻¹; for C10A C70G, 0.000324 ± 0.00018 s⁻¹.

Variants of B1 are the subject of a further series. Briefly: self-cleavage kobs at 640 uM GlcN6P; higher = faster cleavage; RNA array. Particulars: with glucosamine-6-phosphate. Summed up:
as §1
As for A53C C58A, the “self-cleavage kobs at 640 uM GlcN6P” value came to 2.32e-05 ± 1.5e-05 s⁻¹.
On the same count and under the same terms, for U57G A64U C67A C68U the value was 0.000101 ± 6.1e-05 s⁻¹.

In another series the parent is B1. Briefly: self-cleavage kobs at 40 uM GlcN6P; higher = faster cleavage; RNA array. Particulars: with glucosamine-6-phosphate. Summed up: as §1
With C11U A39C, the “self-cleavage kobs at 40 uM GlcN6P” value came to 2.25e-05 ± 1.4e-05 s⁻¹.
Same read-out and setting: for U45G U56C the value was 1.97e-05 ± 1.6e-05 s⁻¹; for G13A C71U, 1.03e-05 ± 9.7e-06 s⁻¹.
On to U57G A64U C67A C68U, for which the “self-cleavage kobs at 40 uM GlcN6P” value came out at 2.72e-05 ± 2e-05 s⁻¹.

The variants in a further series derive from B1. In words: self-cleavage kobs at 10000 uM GlcN6P; higher = faster cleavage; RNA array. Particulars: with glucosamine-6-phosphate. In outline: as §1
On to A6U U46A, for which the “self-cleavage kobs at 10000 uM GlcN6P” value was determined as 1.86e-05 ± 9.9e-06 s⁻¹.
Same read-out and setting: for U46G C50G C71A the value was 1.46e-05 ± 1.4e-05 s⁻¹.
Take U30A C58U: the “self-cleavage kobs at 10000 uM GlcN6P” value came out at 1.48e-05 ± 8.7e-06 s⁻¹.
Consider U31C G41C, for which the “self-cleavage kobs at 10000 uM GlcN6P” value worked out at 2.88e-05 ± 1.7e-05 s⁻¹.
For C10A C70G, the “self-cleavage kobs at 10000 uM GlcN6P” value stood at 1.78e-05 ± 9e-06 s⁻¹.
In the case of C10A C67G, the “self-cleavage kobs at 10000 uM GlcN6P” value was 0.00069 ± 0.00038 s⁻¹.
Turning to C10U C11U, the “self-cleavage kobs at 10000 uM GlcN6P” value was 1.24e-05 ± 1.1e-05 s⁻¹.
